Values joined by “and” are separate entries in the source; they are usually repeats but may differ in a detail not shown here. Equal values may be shown once. In all, about 360,000 compounds went through this assay and about 780 (0.22%) were called active. Inconclusive results, whose numbers are uncertain, are shown with a selection of clear calls. Rule as the data show it: active = inhibition above about 35% (passing the limit was not always enough); inconclusive = no clear call, values can overlap the other calls.
Each compound was assayed on Botulinum neurotoxin type F light chain protease (Clostridium botulinum) (assay: BoNT/F light chain protease inhibitors, primary screen, biochemical, flow cytometry, MLPCN library (AID 588497; also: plate controls were buffer without enzyme for full effect and enzyme alone for no effect)). Conditions: Multiplex microsphere protease cleavage assay, at 10 µM, stronger effect = higher value.

| Structure (SMILES) | inhibition |
| --- | --- |
| COc1ccc(C(=O)N2CCCN(C)CC2)c(OC)c1 | inconclusive: 1.1% |
| c1csc(-c2nnc3ccccn23)c1 | inactive: 9.4% |
| COc1ccc(C)cc1N(CC(=O)NC(C)c1ccccc1)S(C)(=O)=O (centres undefined) | inconclusive: -14.9% |
| Cn1c(=O)n(C)c2cc(NC(=O)COc3ccc(F)cc3)ccc21 | inconclusive: 25.2% |
| CCOc1ccc(C(=O)C(C)OC(=O)C2CCN(c3ccc(C(F)(F)F)cn3)CC2)cc1 (centres undefined) | inactive: 3.5% |
| O=C(CC1SC(=O)N(c2ccccc2)C1=O)Nc1ccc(Cl)cc1 (centres undefined) | inconclusive: -27.9% |
| Cc1cccc(C)c1NC(=O)CSc1nnnn1C | inactive: -6.3% |
| COc1ccc(NC(=O)CN2CCN(CC(=O)Nc3ccccc3Cl)CC2)c(OC)c1 | inactive: 1% |
| Cc1ccc(Cl)cc1N1C(=O)CC(Sc2ncccn2)C1=O (centres undefined) | inconclusive: 21.2% |
| O=C(NCc1ccc(-c2csnn2)cc1)c1cc(Cl)cc(Cl)c1 | inconclusive: 0.6% |
| CNC(=O)CCc1ccc(OC)cc1 | inconclusive: -46.4% |
| CC(C)(C)C(=O)NC1CC2CCCC(C1)N2C(=O)Nc1cccc(Cl)c1 (centres undefined) | inconclusive: -45.4% |
| O=C1CNC(c2ccccc2)C(c2ccccc2)N1 (centres undefined) | inactive: -8.2% |
| O=C1CC(c2ccccc2)CN1 (centres undefined) | inconclusive: 7.9% |
| O=C(NCc1ccco1)c1cc(-c2ccc3c(c2)OCO3)on1 | inactive: -6.5% |
| Cc1ccccc1-n1nnnc1SCC(=O)Nc1ccc(S(=O)(=O)N2CCCC2)cc1 | inconclusive: -1.9% |
| COc1ccc(Cl)cc1C(=O)NNC(=O)c1cccs1 | inactive: -3% |
| Cc1c(C(c2cccs2)c2c(C)n(C)n(-c3ccccc3)c2=O)c(=O)n(-c2ccccc2)n1C | inconclusive: 1.5% |
| C[C@]12C=CC(=O)C=C1CC[C@@H]1C2CC[C@]2(C)OC(=O)CCC12 (some centres undefined) | inconclusive: 21.1% |
| CC(C)c1nc(Cl)c(C#N)c2c1COC(C)(C)C2 | inconclusive: -49.7% |

By substructure, the entries above with a thiophene ring, fused or not.

| Structure (SMILES) | inhibition |
| --- | --- |
| c1csc(-c2nnc3ccccn23)c1 | inactive: 9.4% |
| COc1ccc(Cl)cc1C(=O)NNC(=O)c1cccs1 | inactive: -3% |
| Cc1c(C(c2cccs2)c2c(C)n(C)n(-c3ccccc3)c2=O)c(=O)n(-c2ccccc2)n1C | inconclusive: 1.5% |

Later entries:

| Structure (SMILES) | inhibition |
| --- | --- |
| CC1(C)CC(NC(=O)Cc2ccccc2)CC(C)(C)N1 | inconclusive: 13.4% |
| CCOC(=O)C1CCCN1C(=O)C1(NC(C)=O)CCCC1 (centres undefined) | inactive: 2.1% |
| COC(=O)c1cccc(NC(=O)Cn2cnc3ccccc3c2=O)c1 | inactive: 6.5% |
| Oc1ccc(Nc2ncnc3ccccc23)cc1 | inconclusive: 19.6% |
| COC(=O)CCC[C@H]1CC2(C[C@H](CCCO[Si](C)(C)C(C)(C)C)N1C(=O)OC(C)(C)C)OCCO2 | inactive: -2.6% |
| O=C(Nc1nc2ccccc2n1Cc1ccccc1)c1ccco1 | inconclusive: 17.4% |
| CCOC(=O)c1c(CN(C)C)n(C)c2c(O)c(N=NC(N)=O)c3ccc(Br)cc3c12 | inconclusive: -9.6% |
| Cc1nc(-c2ccc(F)cc2)c(CC(=O)N(C)CC(=O)Nc2ccccc2Cl)s1 | inconclusive: -1.3% |
| O=C(NCC(c1ccco1)N1CCOCC1)c1ccc(F)c(F)c1 (centres undefined) | inconclusive: 22% |
| CCCCn1c(O)c(/C=C2/C=CC=N2)c(=O)[nH]c1=O | inconclusive: 36.7% |
| CCN1CCN(Cc2ccc(NC(=O)c3cc(NC(=O)c4ccno4)cc(OC)c3)cc2C(F)(F)F)CC1 | inactive: -13.4% and inactive: -14.8% |
| Clc1ccc(CSc2snnc2-c2ccccc2)c(Cl)c1 | inconclusive: 3% |
| Cc1ccc(NS(=O)(=O)c2ccc(Cl)c(C(=O)Nc3cccc(C(=O)O)c3)c2)cc1 | inconclusive: 13.8% |
| CN(CCCC(=O)O)S(=O)(=O)c1ccc2c(c1)C(=O)c1cc(S(=O)(=O)N(C)CCCC(=O)O)ccc1-2 | inconclusive: -27.4% |
| O=C1c2cccnc2C(=O)N1C1CCCCC1 | inactive: 1.7% |
| CS(=O)(=O)N(CC(=O)O)c1cc(Cl)cc(Cl)c1 | inconclusive: -22.6% |
| Cc1ccccc1S(=O)Cc1ccc(C(=O)NCCN2CCOCC2)o1 (centres undefined) | inactive: 2.2% |
| Cc1cccn2c(=O)c(C=O)c(N3CC(C)OC(C)C3)nc12 (centres undefined) | inactive: -1% |
| Cc1cc(NC(=O)c2ccc3c(c2)C(=O)N(CC(C)C)C3=O)no1 | inconclusive: -58.4% |
| COc1ccc(OC)c(Nc2nc(N(C)c3ccccc3)nc(N)c2[N+](=O)[O-])c1 | inconclusive: -13.7% |

| Structure (SMILES) | inhibition |
| --- | --- |
| CCOc1ccc(/C=N/NC(=O)Cc2cccs2)cc1 | inconclusive: 8.3% |
| CCOC(=O)C1=C(CN2CCN(c3ccc(F)cc3)CC2)NC(=O)NC1c1cccs1 (centres undefined) | inconclusive: 15.1% |
| Cn1c2c(c(=O)n3ncnc13)CCCC2 | inconclusive: 7.5% |
| CN(c1ccccc1)c1cc(Br)nc(Br)c1 | inconclusive: 50.1% |
| Cc1ccc(C)c(S(=O)(=O)Nc2cc3c4c(c2)CC(=O)N4CCC3)c1 | inactive: -4.9% |
| CCOc1ccc(N/N=C(/C#N)C(N)=O)cc1 | inactive: 6.1% |
| COc1ccc(OC)c(C2C(C#N)=C(N)N(N(C)C)C3=C2C(=O)CC(C)(C)C3)c1 (centres undefined) | inconclusive: -11.9% |
| COc1cc(S(=O)(=O)NCCCn2ccnc2)ccc1F | inconclusive: 13.2% |
| CN(C)CC1(c2ccccc2)CCCC1 | inactive: -4.1% |
| COc1ccc(CCC(=O)Nc2ccc(Cn3ccnc3)cc2)cc1 | inconclusive: 10.3% |
| C[C@H](NC(=O)c1ccco1)C(=O)NCc1cccs1 | inconclusive: 6.1% |
| Cn1c2c(c(=O)c3ccccc31)CCCC2 | inconclusive: 13.8% |
| O=C1N2CN(C(c3ccccc3)c3ccccc3)CN=C2SC1(CO)CO | inactive: -0.9% |
| COCCCNCc1cc(C)n(-c2cc(S(=O)(=O)N3CCOCC3)ccc2N2CCCC2)c1C | inconclusive: -13.3% |
| CCn1c(SCC(=O)NCc2ccco2)nc2c1c(=O)n(C)c(=O)n2C | inactive: -1.8% |
| O=C(Nc1ncc([N+](=O)[O-])s1)c1ccccc1Br | inconclusive: 13.4% |
| O=Cc1cn(Cc2c(F)cccc2Cl)nc1-c1ccccc1 | inconclusive: -15.6% |
| O=S(=O)(Nc1ccccc1Cl)c1cccc2nsnc12 | inconclusive: 4.9% |
| COc1ccc(C(=O)CN2Cc3ccccc3C2=N)cc1 | inconclusive: 40.1% |

— PubChem BioAssay AID588497 (NMMLSC, 2011)
